Data as given in PubChem BioAssay AID2551 (National Center for Advancing Translational Sciences (NCATS), 2010).
The whole screen tested about 310,000 compounds, of which about 17,000 (5.5%) were called active. Inconclusive results, whose numbers are uncertain, are shown with a selection of clear calls. Calls follow the shape of the dose curve; as a rule, active = well fitted inhibition curve with a large enough effect; inconclusive = small, poorly fitted or top-dose-only effect, or effect the other way; inactive = no such curve, though single readings can be large or run the other way. Where the call is inconclusive, the potency comes from a doubtful curve fit.

Sequences of proteins named here, by UniProt entry; tags and fusion partners are left off. A change or cut given only in a name is not applied to a line headed by its entry.
UniProt P51450: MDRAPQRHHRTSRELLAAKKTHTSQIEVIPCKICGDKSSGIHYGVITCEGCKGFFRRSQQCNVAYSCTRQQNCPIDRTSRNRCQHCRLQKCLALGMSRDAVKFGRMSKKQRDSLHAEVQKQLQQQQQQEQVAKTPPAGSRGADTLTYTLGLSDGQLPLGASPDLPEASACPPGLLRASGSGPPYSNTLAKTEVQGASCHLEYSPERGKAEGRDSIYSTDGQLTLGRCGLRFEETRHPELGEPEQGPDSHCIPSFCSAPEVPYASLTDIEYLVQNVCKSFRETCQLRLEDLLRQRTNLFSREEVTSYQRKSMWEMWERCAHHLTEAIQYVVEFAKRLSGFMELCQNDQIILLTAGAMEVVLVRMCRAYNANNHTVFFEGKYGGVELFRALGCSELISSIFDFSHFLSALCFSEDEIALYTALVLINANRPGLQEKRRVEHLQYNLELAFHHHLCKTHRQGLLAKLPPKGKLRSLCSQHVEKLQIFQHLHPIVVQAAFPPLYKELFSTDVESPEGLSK

Biological target: Nuclear receptor ROR-gamma (Mus musculus) (UniProt P51450)
Experiment: qHTS for inhibitors of ROR gamma transcriptional activity; also: nearly all actives have a fitted effect of over 60% in size
Conditions: Drosophila S2 Gal4-RORgamma UAS-luciferase reporter, 20 h; activity change, negative = inhibition: at 53.6 µM (top of the series)
Method in brief: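 Using a luciferase readout, inhibitors were identified by reduced reporter activity in Drosophila cells coexpressing a copper-inducible Gal4–ROR gamma fusion and UAS-driven Photinus luciferase, incubated 20 hr after 700 uM copper sulfate.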
% is scaled to controls: 0 for no effect and ±100 for the full control effect; potency is read from the fitted curve at half-maximal effect.

Row | SMILES | Potency | activity change, negative = inhibition
1 | CCCC(=O)Nc1cc(-c2nnc(OC)c3ccccc23)ccc1N1CCCCC1 | inconclusive: 8.91 µM [activator, partial curve, poor fit] | 
2 | COc1cc(C(=O)N2CCN(C/C=C/c3ccccc3)CC2)cc(OC)c1C | inconclusive: 8.91 µM [activator, partial curve] | 
3 | O=[N+]([O-])c1ccc(N2CCN(S(=O)(=O)c3ccc(Cl)c(Cl)c3)CC2)cc1NCCN1CCOCC1 | inconclusive: 5.62 µM [activator, single point] | 
4 | O=C(CN1C(=O)c2ccccc2C1=O)c1ccccc1 | inactive | 
5 | Cc1nc2cc(NCc3ccccc3O)ccc2n1Cc1ccccc1 | inconclusive: 20 µM [inhibitor, single point] | 
6 | CC(C)Oc1ccc(C(=O)CCN2CCCCC2)cc1 | active: 10 µM | 
7 | O=C(Cc1ccccc1)NC(=S)Nc1cccc(C(F)(F)F)c1 | active: 7.08 µM | 
8 | Cc1cnc(NC(=O)c2ccc3c(c2)C(=O)N(Cc2ccco2)C3=O)s1 | inconclusive: 15.8 µM [inhibitor, single point] | 
9 | CCc1ccc(N2C(=O)CC(N3CCN(c4ccccn4)CC3)C2=O)cc1 (stereo not given) | inconclusive: 35.5 µM [activator, single point] | 
10 | CCN(c1ccccc1)S(=O)(=O)c1cc(NC(=O)Nc2ccccc2C#N)ccc1Cl | inconclusive: 14.1 µM [activator, single point] | 
11 | Cc1nc(C)c(C(=O)NCCC(c2ccccc2)c2ccccc2)o1 | inconclusive: 12.6 µM [activator, single point] | 
12 | Cc1cc(C)c(C(=O)NC2CC(C)(C)Cc3c2cnn3-c2ccccc2)o1 (stereo not given) | inactive | 
13 | Cc1ccc(C(C[N+](=O)[O-])c2c(C)cc3ccccn23)cc1 (stereo not given) | active: 22.4 µM | 
14 | CCOC(=O)N1CCN(S(=O)(=O)c2ccc3c(c2)OCC(=O)N3)CC1 | inactive | 
15 | Cc1nc(=S)c2c([nH]1)-c1ccccc1CC21CCCCC1 | active: 0.199 µM | 
16 | COc1ccccc1/C=C/C=C1\Oc2c(ccc(O)c2CN(C)C)C1=O | inactive | 
17 | CC(=O)c1cc2c(cc1O)OC(C)(C)C=C2 | inconclusive: 14.1 µM [activator, single point] | 
18 | CSCc1ccc(C(=O)NC2CC(C)(C)Cc3c2cnn3-c2ccc(F)cc2)o1 (stereo not given) | inconclusive: 20 µM [activator, single point] | 
19 | O=C(CSc1nc(-c2ccco2)cc(C(F)(F)F)n1)N1CCN(c2ccc(Cl)cc2)CC1 | inconclusive: 7.08 µM [activator, partial curve, poor fit] | 
20 | CCOCCCNC(=O)c1cc2c(=O)n3cccc(C)c3nc2n1C | inactive | 
21 | COC(=O)CCn1nnc(-c2cccs2)n1 |  | inactive: -9.71% [at 0.365 µM]
22 | COCCNC(=O)CCCCCN1C(=O)CCC1=O | inconclusive: 12.6 µM [inhibitor, single point] | 
23 | Cc1ccc(NC(=O)NCc2ccc3c(c2)OCO3)cc1 | inconclusive: 7.08 µM [activator, partial curve] | 
24 | CCc1ccc(OCCCC(=O)Nc2nccs2)cc1 | inconclusive: 22.4 µM [inhibitor, single point] | 
25 | CC(C)=Cc1c(O)nc2ccccn2c1=O | inactive | 

Copied from the list.
Entry of COCCNC(=O)CCCCCN1C(=O)CCC1=O under Potency: inconclusive: 12.6 µM [inhibitor, single point]
Entry of CC(C)=Cc1c(O)nc2ccccn2c1=O under Potency: inactive

Next part

Row | SMILES | Potency | activity change, negative = inhibition
26 | COC(=O)C(O)(CC(=O)Nc1ccc(OC)cc1)C(F)(F)F (stereo not given) | inconclusive: 1.26 µM [inhibitor, partial curve, poor fit] | 
27 | CCOC(=O)C1CCCN(S(=O)(=O)c2ccc(Br)s2)C1 (stereo not given) | inconclusive: 35.5 µM [inhibitor, single point] | 
28 | COc1ccccc1CCN1CCCC(CN(C)C(=O)CCC(=O)N(C)C)C1 (stereo not given) | inconclusive: 35.5 µM [inhibitor, single point] | 
29 | Cc1ccc(S[C@@H](CCN2CC[C@H](O)CCC2=O)c2ccccc2)cc1 | inactive | 
30 | COC(=O)Nc1ccc(S(=O)(=O)Nc2ccc(O)cc2)cc1 | inconclusive: 15.8 µM [activator, single point] | 
31 | CC(=O)N1CCN(Cc2nc3cc(NC(=O)c4ccc(Cl)cc4)ccc3n2C)CC1 | inactive | 
32 | O=C(O)c1ccc2c(=O)n3c(nc2c1)/C(=C/c1ccc(C(F)(F)F)cc1)CC3 | inconclusive: 15.8 µM [activator, single point] | 
33 | Nc1ccc(N2CCCCC2)c(S(=O)(=O)Nc2ccc(Cl)cc2)c1 | inactive | 
34 | CC(C)(C)c1ccc(C(=O)/C=C2\NC(=O)CS2)cc1 | active: 3.16 µM | 
35 | Cc1[nH]n(-c2ncc(-c3ccccc3)s2)c(=O)c1C(c1ccc(Br)cc1)C(C#N)C#N (stereo not given) | active: 11.2 µM | 
36 | CCN1CCN(c2cc(C)c3cc(NC(=S)NCCCN4CCc5ccccc5C4)ccc3n2)CC1 | inconclusive: 35.5 µM [inhibitor, single point] | 
37 | Cc1cc([N+](=O)[O-])c(C)cc1-c1ccc(/C=N/NC(=O)c2cccnc2)o1 | active: 8.91 µM | 
38 | OC(CN1CCNCC1)Cn1c2ccccc2c2ccccc21 (stereo not given) | inactive | 
39 | COc1ccc(Cl)cc1NC(=O)c1noc(C)c1[N+](=O)[O-] | inconclusive: 25.1 µM [inhibitor, single point] | 
40 | CCC1=NN2C(=N)/C(=C/c3c(C)nn(-c4ccccc4)c3Cl)C(=O)N=C2S1 | inconclusive: 35.5 µM [inhibitor, single point] | 
41 | O=C(NCCc1ccc(F)cc1)C1CCCO1 (stereo not given) | inactive | 
42 | COC(=O)CCC(=O)Nc1cc(S(=O)(=O)Nc2ccc(Cl)cc2)ccc1N1CCOCC1 | inactive | 
43 | Cc1c(CN2CCC(CO)(CCOc3ccccc3)CC2)[nH]c2ccc(Cl)cc12 | active: 11.2 µM | 
44 | COc1ccc(-c2c(-c3ccccc3)c(C(=O)C(=O)NCCCN(C)C)n3ccc4cc(OC)c(OC)cc4c23)cc1OC | inconclusive: 12.6 µM [inhibitor, single point] | 
45 | CCC1(C)Nc2ccccc2C(=O)N1O (stereo not given) | inconclusive: 15.8 µM [inhibitor, single point] | 
46 | Nc1nc(F)nc2c1ncn2[C@@H]1O[C@H](CO)[C@@H](O)[C@H]1O | inactive | 
47 | C=CCNc1oc(-c2cccs2)nc1S(=O)(=O)c1ccccc1 | inconclusive: 28.2 µM [activator, single point] | 
48 | Fc1ccc(-n2c(=S)[nH]c3cccnc32)cc1 | inconclusive: 22.4 µM [inhibitor, single point] | 
49 | CC(C)c1ccc(C(=O)Nc2nnc(S(=O)(=O)N3CCOCC3)s2)cc1 | inconclusive: 12.6 µM [activator, partial curve] | 
50 | c1ccc2c(c1)nc(NCC1CCCO1)c1nnnn12 (stereo not given) | inconclusive: 17.8 µM [activator, single point] | 

Row | SMILES | Potency | activity change, negative = inhibition
51 | COC(=O)[C@@H](NC(=O)O[C@@H]1C(=O)c2ccc(OC)cc2O[C@H]1c1cccc(C(F)(F)F)c1)C(C)C | inconclusive: 31.6 µM [activator, single point] | 
52 | Cc1c(C(=O)N/N=C/c2cccs2)nc2ccccn12 | inactive | 
53 | CC1CCCCN1c1ncnc2ccccc12 (stereo not given) | inconclusive: 35.5 µM [inhibitor, single point] | 
54 | O=C(CSc1ccc(-c2ccccn2)nn1)NC1CCCC1 | inactive | 
55 | Cn1c(=O)c2c(ncn2Cc2ccc(Cl)cc2)n(C)c1=O | inconclusive: 15.8 µM [activator, single point] | 
56 | Cc1c(C(=O)N/N=C/c2ccc(N(C)C)cc2)[nH]c2ccc(Cl)cc12 | active: 6.31 µM | 
57 | CCS(=O)(=O)N1CCN(c2ccc([N+](=O)[O-])c(NCC3CCCO3)c2)CC1 (stereo not given) | inactive | 
58 | c1ccc(N2CCN(c3nc(-c4ccccn4)nc4ccccc34)CC2)cc1 | active: 0.282 µM | 
59 | COc1cc(/C=C/C(=O)N2c3ccccc3Sc3ccc(C(F)(F)F)cc32)cc(OC)c1OC | inconclusive: 12.6 µM [activator, partial curve] | 
60 | Cc1cnc(C(=O)Nc2nnc(C(C)C)s2)cn1 | inconclusive: 35.5 µM [inhibitor, single point] | 
61 | CCOc1ccccc1NC(=O)CN(C)S(=O)(=O)c1cnc[nH]1 | inactive | 
62 | O=c1cc(N2CCCCC2)c(-c2ccccc2)nn1Cc1c(Cl)cccc1Cl | inactive | 
63 | CCc1ccc(NC(=O)c2ccc3nc(N)sc3c2)cc1 | inconclusive: 35.5 µM [activator, single point] | 
64 | Cc1ccc(-n2ncc3c(=O)n(Cc4cccnc4)cnc32)cc1 | inconclusive: 22.4 µM [activator, single point] | 
65 | CCOC(=O)c1sc(=S)n(Cc2ccccc2)c1C | inactive | 
66 | Cc1ccc(NC(=S)NC(=O)/C=C/c2ccco2)c(O)c1 | active: 8.91 µM | 
67 | Cc1ccc(S(=O)(=O)N(C)CC(=O)Nc2nc3ccccc3s2)cc1 | inconclusive: 2.51 µM [activator, partial curve] | 
68 | CCCn1c2ccccc2c2cnn(CC(=O)NCCN(C)C)c(=O)c21 | inactive | 
69 | COc1ccc(CCN(C(=S)Nc2ccccc2)C2CC(=O)N(c3ccccc3)C2=O)cc1 (stereo not given) | inactive | 
70 | N/C(=N\OC(=O)COc1ccc(Br)cc1Cl)c1cccnc1 | inconclusive: 3.98 µM [activator, partial curve] | 
71 | COCCCN=C1NN=C(c2cc(C)n(Cc3ccco3)c2C)CS1 | inconclusive: 35.5 µM [inhibitor, single point] | 
72 | COc1ccc(C(=O)CSc2nnc(-c3cc4ccccc4cc3O)n2Cc2ccco2)cc1 | inconclusive: 3.98 µM [activator, full curve, poor fit] | 
73 | Cc1ccc(NC(=S)Nc2ccc(OC(F)F)c(Cl)c2)cc1Cl | active: 12.6 µM | 
74 | O=C1Nc2ccc(Br)cc2C12NNc1ccccc1O2 (stereo not given) | active: 11.2 µM | 
75 | CCN(CC)C(=O)c1ccc(-c2nnc(Nc3ccc(O)cc3)c3ccccc23)cc1 | inactive | 

Rewritten as comma-separated lines: entries from further up.
Row,SMILES,Potency,"activity change, negative = inhibition"
52,Cc1c(C(=O)N/N=C/c2cccs2)nc2ccccn12,inactive,
53,CC1CCCCN1c1ncnc2ccccc12 (stereo not given),"inconclusive: 35.5 µM [inhibitor, single point]",
54,O=C(CSc1ccc(-c2ccccn2)nn1)NC1CCCC1,inactive,
55,Cn1c(=O)c2c(ncn2Cc2ccc(Cl)cc2)n(C)c1=O,"inconclusive: 15.8 µM [activator, single point]",
